Data taken from ChEMBL document CHEMBL3988442, “University of Dundee, Small-Polar-MMV Screening Library” (2021).

By UniProt entry, the sequences of proteins in these tests, tags left out.
UniProt P9WNZ1, whole entry: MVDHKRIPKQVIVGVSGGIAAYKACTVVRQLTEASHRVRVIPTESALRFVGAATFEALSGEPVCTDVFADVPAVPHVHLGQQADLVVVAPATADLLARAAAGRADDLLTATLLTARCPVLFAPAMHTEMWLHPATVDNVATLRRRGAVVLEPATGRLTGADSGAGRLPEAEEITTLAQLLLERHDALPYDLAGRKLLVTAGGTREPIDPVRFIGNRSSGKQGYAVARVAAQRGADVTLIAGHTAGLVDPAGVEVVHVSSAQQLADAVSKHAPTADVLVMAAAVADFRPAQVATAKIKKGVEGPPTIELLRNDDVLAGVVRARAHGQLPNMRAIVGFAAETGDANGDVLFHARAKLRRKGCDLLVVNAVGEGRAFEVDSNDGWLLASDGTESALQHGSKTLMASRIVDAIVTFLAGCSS
UniProt P9WFT3, whole entry: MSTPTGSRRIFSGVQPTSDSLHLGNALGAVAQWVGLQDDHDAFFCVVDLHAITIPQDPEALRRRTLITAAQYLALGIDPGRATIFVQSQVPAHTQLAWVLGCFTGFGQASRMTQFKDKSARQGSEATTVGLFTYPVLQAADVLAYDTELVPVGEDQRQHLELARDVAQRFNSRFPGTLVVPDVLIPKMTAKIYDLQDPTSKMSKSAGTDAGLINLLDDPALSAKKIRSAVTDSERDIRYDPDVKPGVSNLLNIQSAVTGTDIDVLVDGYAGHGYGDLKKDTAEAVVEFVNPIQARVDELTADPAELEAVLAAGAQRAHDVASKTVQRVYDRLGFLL
UniProt I6X8D2, whole entry: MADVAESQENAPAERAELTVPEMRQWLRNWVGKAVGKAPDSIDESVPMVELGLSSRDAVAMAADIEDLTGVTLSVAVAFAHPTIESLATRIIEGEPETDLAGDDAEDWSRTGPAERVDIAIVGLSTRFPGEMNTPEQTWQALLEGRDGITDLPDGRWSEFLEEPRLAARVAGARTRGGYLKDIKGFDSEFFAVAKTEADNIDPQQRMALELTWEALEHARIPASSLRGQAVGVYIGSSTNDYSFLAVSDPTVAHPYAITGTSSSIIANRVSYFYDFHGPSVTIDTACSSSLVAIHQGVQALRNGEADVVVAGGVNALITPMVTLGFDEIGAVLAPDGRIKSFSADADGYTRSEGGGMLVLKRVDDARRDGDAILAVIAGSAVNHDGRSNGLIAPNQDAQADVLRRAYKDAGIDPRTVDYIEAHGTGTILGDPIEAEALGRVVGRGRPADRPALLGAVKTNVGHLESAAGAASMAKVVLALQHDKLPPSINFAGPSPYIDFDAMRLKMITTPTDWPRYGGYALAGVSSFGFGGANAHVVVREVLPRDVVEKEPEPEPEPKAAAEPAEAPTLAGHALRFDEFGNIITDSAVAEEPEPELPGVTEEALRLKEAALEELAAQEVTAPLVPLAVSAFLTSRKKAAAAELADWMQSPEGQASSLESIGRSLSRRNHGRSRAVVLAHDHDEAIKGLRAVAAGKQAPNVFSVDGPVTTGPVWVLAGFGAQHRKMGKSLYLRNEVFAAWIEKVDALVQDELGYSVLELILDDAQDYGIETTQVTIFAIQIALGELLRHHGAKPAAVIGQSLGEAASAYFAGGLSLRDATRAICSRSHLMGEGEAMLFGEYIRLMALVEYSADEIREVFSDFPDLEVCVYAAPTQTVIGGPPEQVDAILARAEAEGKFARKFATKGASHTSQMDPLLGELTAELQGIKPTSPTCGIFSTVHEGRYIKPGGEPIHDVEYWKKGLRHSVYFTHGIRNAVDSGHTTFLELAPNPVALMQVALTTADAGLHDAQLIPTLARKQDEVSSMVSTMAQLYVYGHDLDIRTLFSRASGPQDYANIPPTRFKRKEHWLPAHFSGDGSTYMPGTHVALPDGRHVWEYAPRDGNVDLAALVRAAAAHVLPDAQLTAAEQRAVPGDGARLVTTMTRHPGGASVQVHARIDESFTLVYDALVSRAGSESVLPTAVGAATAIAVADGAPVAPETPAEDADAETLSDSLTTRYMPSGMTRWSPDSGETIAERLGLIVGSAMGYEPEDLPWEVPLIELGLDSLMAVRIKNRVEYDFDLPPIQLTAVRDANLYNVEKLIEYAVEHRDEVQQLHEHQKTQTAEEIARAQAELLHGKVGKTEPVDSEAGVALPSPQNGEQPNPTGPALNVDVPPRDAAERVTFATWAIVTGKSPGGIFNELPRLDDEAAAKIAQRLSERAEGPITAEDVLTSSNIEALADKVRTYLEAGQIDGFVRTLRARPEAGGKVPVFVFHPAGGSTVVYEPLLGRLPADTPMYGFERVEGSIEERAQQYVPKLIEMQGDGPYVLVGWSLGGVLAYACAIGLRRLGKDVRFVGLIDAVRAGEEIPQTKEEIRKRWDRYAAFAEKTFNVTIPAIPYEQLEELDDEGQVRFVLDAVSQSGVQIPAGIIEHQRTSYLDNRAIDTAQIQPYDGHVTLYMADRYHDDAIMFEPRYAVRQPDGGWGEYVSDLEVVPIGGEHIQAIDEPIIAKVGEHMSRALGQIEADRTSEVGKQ

A: 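Enzyme assay of CoaBC with a phosphate dye (Biomol Green) read at 650 nm. Target: Coenzyme A biosynthesis protein CoaBC, Mycobacterium tuberculosis (UniProt P9WNZ1). Concentration: 30 µM. Higher reads as stronger inhibition, judged from the few compounds that gave an IC50. Most strong results did not repeat in a second test. Size under these conditions: about 67,000 compounds, about 40 of them at 50% or above in at least one test.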
B: 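Tryptophan-tRNA ligase, Mycobacterium tuberculosis (UniProt P9WFT3). Enzyme assay of tryptophanyl-tRNA synthetase; the read-out is not stated. Concentration: 10 µM. Direction is not recorded; retested compounds ran higher, which suggests that high means inhibition. Of about 65,000 compounds tested this way, about 64 (0.098%) reached 50% or more in at least one test.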
C: 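Polyketide synthase Pks13, Mycobacterium tuberculosis (UniProt I6X8D2). Enzyme assay of the thioesterase domain of polyketide synthase 13; the read-out is not stated. Compounds at 30 µM. Higher reads as stronger inhibition (inferred from which compounds were picked for retests). Of about 67,000 compounds tested this way, about 300 (0.46%) reached 50% or more in at least one test.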

Values are the deposited “Percent Effect”, in %.
The controls that fix the scale are not given in the record; negative values are as filed.
The compounds are a random part of those screened.

{"compound": "CC(=O)N1CC[C@H]2OCC[C@@]2(C(=O)NCc2cnc(C)cn2)C1", "A": 4.198, "C": -2.236}
{"compound": "CCOC1COC2(CCN(c3cccc(C)n3)CC2)C1", "stereo": "stereo unspecified", "A": 2.683, "C": 3.924}
{"compound": "O=C1COC2(CCN(Cc3ccccn3)CC2)CN1CC1CC1", "A": 2.915, "B": -2.977, "C": -1.75}
{"compound": "CC(=O)N1CCC(n2nccc2-c2cnc(N3CCCC3)nc2)CC1", "A": 4.699, "C": 19.29}
{"compound": "CCOc1cc(CN(C)CCC(=O)OC)ccc1OC(F)F", "A": 5.076, "B": 1.485, "C": -15.16}
{"compound": "O=C1CC(c2ccncc2)C2(CCN(C(=O)c3cccc(F)c3)CC2)N1", "stereo": "stereo unspecified", "A": 1.015, "B": -3.539}
{"compound": "CC(=O)N1CCC(c2cnc(-c3c(C)n[nH]c3C)cn2)CC1", "A": 4.136, "B": 3.42}
{"compound": "COc1ccccc1[C@@H]1CN(Cc2cnc(N(C)C)nc2)C[C@H]1C(=O)O", "A": -1.775, "B": 0.09234, "C": -20.35}
{"compound": "CC(C)CN1CCC(NC(C)c2ccccc2-n2cccn2)CC1", "stereo": "stereo unspecified", "A": -3.944, "B": 0, "C": -2.333}
{"compound": "c1cncc(CN2CCC(c3n[nH]c(C4CC4)n3)CC2)c1", "A": -2.947, "B": 16.91, "C": -5.671}
{"compound": "COc1cccc(-n2c(C)cc(C(=O)NS(C)(=O)=O)c2C)c1", "A": 2.057, "B": 0.3934, "C": -27.05}
{"compound": "Cc1ccccc1N1CCCN(c2ccncn2)CC1", "A": 0.3226, "B": -1.005, "C": -4.133}
{"compound": "Cn1nc(C(=O)N2CCCC(n3cncn3)C2)ccc1=O", "stereo": "stereo unspecified", "A": -3.672, "B": 1.709, "C": -15.9}
{"compound": "CS(=O)(=O)CCC(=O)N1C[C@@H]2CC[C@H](C1)N(Cc1ccccc1)C2=O", "A": -2.146, "B": 2.551, "C": -30.83}
{"compound": "Cc1noc(C)c1CN(C)Cc1nc(N)c2ccccc2n1", "A": -7.317, "B": 10.08, "C": 26.18}
{"compound": "CC(=O)Nc1ccc(SCC(O)COCc2ccccc2)cc1", "stereo": "stereo unspecified", "A": 0.6904, "B": -4.575, "C": 8.847}
{"compound": "CN(C(=O)CCc1ccsc1)S(C)(=O)=O", "A": 9.046, "B": 7.753, "C": -7.431}
{"compound": "CN(C)C(=O)[C@@H]1CCO[C@@H]2CCN(Cc3ccccc3)C[C@@H]21", "A": 2.692, "B": -1.501, "C": -3.015}
{"compound": "CC(NC(=O)Nc1cc(F)ccc1N1CCCCC1)c1nncn1C", "stereo": "stereo unspecified", "A": 0.8304, "B": 3.052, "C": -7.459}
{"compound": "COC1CCCN(C(=O)Nc2nc(C)n(C)n2)C1", "stereo": "stereo unspecified", "A": -8.482, "B": 0.3552, "C": -10.76}
{"compound": "CN(CC(=O)NC1CC1)C(=O)c1csc(Br)c1", "A": -0.7856, "B": 1.417, "C": 0.2745}
{"compound": "Cc1cnc(N2CCc3ncnc(N4CCN(C)CC4)c3CC2)nc1", "A": 0.8333, "B": 1.763, "C": -5.778}
{"compound": "CCN1C(=O)CC[C@]12CC[C@@H](NC(=O)c1cnccn1)CC2", "A": -5.534, "B": 5.233, "C": -44.77}
{"compound": "NC(=O)CCC1CCCN(Cc2cnc(N3CCCCC3)nc2)C1", "stereo": "stereo unspecified", "A": 3.236, "B": 0.4542, "C": -9.717}
{"compound": "Cc1ccc(CC(=O)N2CCN(CC(O)C(C)(C)C)CC2)cn1", "stereo": "stereo unspecified", "A": 6.971, "B": -5.21, "C": -13.02}
{"compound": "CC(C)N1[C@H](CN2CCCC2)C[C@@H]2CN(Cc3cnn(C)c3)CC[C@@H]21", "B": -5.136, "C": -36.98}
{"compound": "c1ccc2c(c1)ccn2CCCNC1CCOC2(CCOCC2)C1", "stereo": "stereo unspecified", "A": 1.648, "B": -2.21, "C": -18.8}
{"compound": "Cc1ccc(-c2n[nH]cc2CN(Cc2nccn2C)C(C)C)cc1C", "B": -1.312, "C": -37.82}
{"compound": "CCNC(=O)NC(=O)CN1CCOC(c2ccccc2Cl)C1", "stereo": "stereo unspecified", "A": 12.63, "B": -2.319, "C": -33.51}
{"compound": "CC(C)OCCCNC(=O)CN1C=Nc2ccccc2S1(=O)=O", "A": -2.477, "B": -2.534, "C": 0.7885}
{"compound": "Cn1c(C2CC2)nc2c1CCN(Cc1nc(-c3ccsc3)no1)C2", "A": 4.592, "B": -1.712, "C": -3.471}

For reference, 2 entries once more:

| compound | A | B | C |
|---|---|---|---|
| `c1cncc(CN2CCC(c3n[nH]c(C4CC4)n3)CC2)c1` | -2.947 | 16.91 | -5.671 |
| `CCOc1cc(CN(C)CCC(=O)OC)ccc1OC(F)F` | 5.076 | 1.485 | -15.16 |